Sequences of proteins named here, by UniProt entry; tags and fusion partners are left off.
UniProt P16709: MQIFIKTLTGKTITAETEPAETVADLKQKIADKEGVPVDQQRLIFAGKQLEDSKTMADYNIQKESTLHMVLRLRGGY

No constants are given. Whether binding was seen depends on the method and setting. In cells and extracts the contact can be indirect. Here binding means that the protein was enriched with, or labelled near, the bait; the list need not be complete. For some of these results: Where a sequence is shown, tags or fusion partners need not be part of it.
What follows are substances tested against T1, Ac51 (AcMNPV) (UniProt P41455) (assay: affinity purification with mass spectrometry; Sf9 cells infected with vAcWT (MOI 5), collected at 48 h p.i.; IP with anti-Ac51 antibody, IgG as control; LC-MS/MS).
T1 sequence: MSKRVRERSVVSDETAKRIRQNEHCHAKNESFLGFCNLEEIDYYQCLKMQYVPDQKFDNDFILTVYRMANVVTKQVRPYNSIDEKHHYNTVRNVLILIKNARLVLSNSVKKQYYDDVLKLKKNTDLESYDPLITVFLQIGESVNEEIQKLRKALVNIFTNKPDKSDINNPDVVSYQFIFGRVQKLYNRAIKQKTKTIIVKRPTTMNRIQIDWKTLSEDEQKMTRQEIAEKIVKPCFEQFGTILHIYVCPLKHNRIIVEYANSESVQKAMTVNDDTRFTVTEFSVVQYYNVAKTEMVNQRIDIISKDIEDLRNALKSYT
In the case of AcOrf-93 (AcMNPV), the binding is reported as “binds”.
With Copia-like envelope protein (AcMNPV) the binding was “binds”.
With Orf-79 peptide (AcMNPV) the binding was “binds”.
Orf-120 (AcMNPV) was tested, and the binding was “binds”.
With “Viral capsid-associated protein (AcMNPV)” the binding was “binds”.
pcna (AcMNPV) was tested, and the binding was “binds”.

What follows are substances tested against T2, Flag-tagged Ac66 (AcMNPV) (UniProt P41467) (assay: affinity purification with mass spectrometry; Sf9 cells infected with vAcWT^Ac66Flag (MOI 5), collected at 48 h p.i.; IP with anti-Flag antibody, IgG as control; LC-MS/MS).
T2 sequence: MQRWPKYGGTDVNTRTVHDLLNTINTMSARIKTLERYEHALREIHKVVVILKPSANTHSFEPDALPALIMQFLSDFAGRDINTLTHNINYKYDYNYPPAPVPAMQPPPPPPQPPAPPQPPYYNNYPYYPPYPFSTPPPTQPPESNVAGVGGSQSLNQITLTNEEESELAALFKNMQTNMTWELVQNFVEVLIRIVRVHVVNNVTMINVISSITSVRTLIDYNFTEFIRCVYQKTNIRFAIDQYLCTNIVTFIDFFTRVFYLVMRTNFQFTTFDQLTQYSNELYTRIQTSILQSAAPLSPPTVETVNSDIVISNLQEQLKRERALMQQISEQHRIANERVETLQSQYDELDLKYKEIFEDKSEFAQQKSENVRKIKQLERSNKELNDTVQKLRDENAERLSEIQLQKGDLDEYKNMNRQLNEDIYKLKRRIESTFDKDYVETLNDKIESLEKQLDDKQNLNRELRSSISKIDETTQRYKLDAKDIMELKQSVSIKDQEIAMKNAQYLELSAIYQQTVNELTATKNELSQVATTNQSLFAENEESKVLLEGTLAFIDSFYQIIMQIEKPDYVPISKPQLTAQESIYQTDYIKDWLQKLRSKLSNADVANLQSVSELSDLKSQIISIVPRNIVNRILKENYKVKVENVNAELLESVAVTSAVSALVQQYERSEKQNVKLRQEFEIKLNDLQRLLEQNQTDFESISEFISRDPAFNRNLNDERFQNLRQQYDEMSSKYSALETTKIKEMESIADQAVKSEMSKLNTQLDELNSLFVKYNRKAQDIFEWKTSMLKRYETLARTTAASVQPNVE
For Early 49 Daa protein (AcMNPV), the binding was “binds”.
In the case of “V-ubi (ORF 3) (from UniProt P16709 1-77)”, the binding is reported as “binds”.
With host actin the binding was “binds”.
With host myosin the binding was “binds”.

Source: article PMC12172431
